Assay [1] deals with Sortilin cytoplasmic domain V778–E831 (pB27 bait) (human (from the printed RefSeq entry)) (UniProt Q99523). The assay is described as follows: two-hybrid; pairwise test, data not shown.
The target in assay [2] is T1, SORCS1C cytoplasmic domain K1121-K1179 (pB27 bait) (human (from the printed RefSeq entry)) (UniProt Q8WY21).
T1 sequence: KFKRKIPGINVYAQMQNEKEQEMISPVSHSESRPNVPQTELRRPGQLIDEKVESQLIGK
Nature of the assay: two-hybrid; pairwise test: pB27 (LexA) bait and pP6 prey plasmids; cells spotted on plates without Leu/Trp/His; 3-AT against bait auto-activation (10 or 15 mM for SorLA-cd, 20 mM for MPR46-cd); done three times.

Amino acid sequences for entries named in this document (tags omitted). Residues count along the entry.
UniProt Q99523, residues 778-831: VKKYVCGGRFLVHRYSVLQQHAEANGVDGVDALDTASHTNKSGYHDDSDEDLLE
UniProt Q96PQ0, residues 1101-1159: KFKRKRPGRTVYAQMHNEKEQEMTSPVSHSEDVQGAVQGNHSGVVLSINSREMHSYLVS
UniProt Q9UJY4, residues 37-202: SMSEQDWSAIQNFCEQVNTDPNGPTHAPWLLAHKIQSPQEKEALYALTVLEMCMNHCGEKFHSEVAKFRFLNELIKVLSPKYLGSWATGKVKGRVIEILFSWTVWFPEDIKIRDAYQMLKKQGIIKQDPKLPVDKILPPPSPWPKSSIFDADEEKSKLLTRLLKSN

Assay [3] deals with SORCS2 cytoplasmic domain K1101-S1159 (pB27 bait) (human (from the printed RefSeq entry)) (UniProt Q96PQ0). The assay is described as above.
In assay [4] the target is T2, MPR300 cytoplasmic domain K2328-I2491 (pB27 bait) (human (from the printed RefSeq entry)) (UniProt P11717).
T2 sequence: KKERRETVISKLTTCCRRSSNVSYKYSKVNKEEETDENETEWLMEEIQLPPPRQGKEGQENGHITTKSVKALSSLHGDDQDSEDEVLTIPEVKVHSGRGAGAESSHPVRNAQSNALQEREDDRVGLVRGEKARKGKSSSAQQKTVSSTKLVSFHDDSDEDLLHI
The description is as above.

Here are results for two molecules from PMC6345817.

Results are given in words; binding and its absence hold for the method and conditions named. Some binding calls cover weakened binding; strength is not graded here.

With “GGA2 fragment S37-N202 (pP6 prey clone, VHS domain) (from UniProt Q9UJY4 37-202) (domain or fragment)”, the binding result in assay [1] is recorded as “binds”.

B1: HSPA12A fragment T513-Y675 (pP6 prey clone identified by Hybrigenics) (domain or fragment, UniProt O43301 513-675)
chain: TILKGAVLFGLDPAVIKVRRSPLTYGVGVLNRYVEGKHPPEKLLVKDGTRWCTDVFDKFISADQSVALGELVKRSYTPAKPSQLVIVINIYSSEHDNVSFITDPGVKKCGTLRLDLTGTSGTAVPARREIQTLMQFGDTEIKATAIDIATSKSVKVGIDFLNY
Consider B1, for which the binding result in assay [2], in assay [3] and in assay [4] was “no binding” throughout.
